Record: PubChem BioAssay AID1259274 (Sanger Institute, 2017)

- Assay: 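Kinases RKO cells need to grow, alone or with anchor drugs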 (primary screen)
- Cell system: human RKO colorectal cancer cells
- Reagent: siRNA pool against human genes
- Treatment: anchor drugs BYL719 at 1 µM, cetuximab at 5 µg/ml or trametinib at 10 nM; DMSO vehicle as the no-drug arm
- Measured: 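Viability of cells versus control pool 2 (non-targeting) averaged across replicates; knock-down-only robust z-score; for every anchor drug (BYL719, cetuximab, trametinib) a synergy score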
- Direction: viability z-score, siRNA alone: higher = more viable cells; low values mean essential gene
- Active means: 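Essential when the robust viability z-score with siRNA only falls below -3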
- Meaning of the calls: active = essential when knocked down alone; inactive = no change alone
Shown is one part, drawn at random, of 794 deposited reagents. In the full data, 11 (1.4%) are marked active. 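Calls rest on knock-down without drug only; synergy scores with anchor drugs were not used for the essential call.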 Not all columns of the deposit are shown. Reagent sequences are not shown. Not stated in the record: the amount of reagent, the time to read-out.

Gene	PubChem SID	viability z-score, siRNA alone	Outcome
PSTK (phosphoseryl-tRNA kinase)	SID134320501	0.1	inactive
EIF2AK1 (eukaryotic translation initiation factor 2 alpha kinase 1)	SID56478942	0.0182	inactive
CDK13 (cyclin dependent kinase 13)	SID152148828	-0.553	inactive
ERBB2 (erb-b2 receptor tyrosine kinase 2)	SID152153302	0.111	inactive
HIPK1 (homeodomain interacting protein kinase 1)	SID135620891	-0.148	inactive
TNIK (TRAF2 and NCK interacting kinase)	SID152153870	1.19	inactive
ULK3 (unc-51 like kinase 3)	SID152148646	0.919	inactive
CSNK1G1 (casein kinase 1 gamma 1)	SID152156369	-3.27	active
RBM10 (RNA binding motif protein 10)	SID134313901	-1.9	inactive
YES1 (YES proto-oncogene 1, Src family tyrosine kinase)	SID152156078	-1.35	inactive
CLK1 (CDC like kinase 1)	SID152154455	1.19	inactive
PEAK1 (pseudopodium enriched atypical kinase 1)	SID152152075	0.633	inactive
PAK1 (p21 (RAC1) activated kinase 1)	SID135620692	-1.88	inactive
MAP3K21 (mitogen-activated protein kinase kinase kinase 21)	SID135620779	0.447	inactive
CDC42BPG (CDC42 binding protein kinase gamma)	SID135621430	0.904	inactive
STK38L (serine/threonine kinase 38 like)	SID152156064	-1.13	inactive
ULK4 (unc-51 like kinase 4)	SID152148607	-0.035	inactive
DGKH (diacylglycerol kinase eta)	SID134311961	0.538	inactive
ETNK1 (ethanolamine kinase 1)	SID152152739	1.19	inactive
MAGI3	SID152154544	0.383	inactive
NME5 (NME/NM23 family member 5)	SID56479119	0.145	inactive
CAMK1 (calcium/calmodulin dependent protein kinase I)	SID56478929	-0.583	inactive
NRBP2 (nuclear receptor binding protein 2)	SID56479019	-1.07	inactive
TPD52L3 (TPD52 like 3)	SID56479192	1.05	inactive
TJP2 (tight junction protein 2)	SID135621862	-0.208	inactive
WNK3 (WNK lysine deficient protein kinase 3)	SID152156066	1.01	inactive
AXL (AXL receptor tyrosine kinase)	SID152148834	1.19	inactive
GALK1 (galactokinase 1)	SID56479189	-0.0169	inactive
RIOK3 (RIO kinase 3)	SID152150051	0.41	inactive
IGF1R (insulin like growth factor 1 receptor)	SID152153009	-0.12	inactive
PIK3C2A	SID152154179	-2.04	inactive
CDKN2D (cyclin dependent kinase inhibitor 2D)	SID135620643	-0.0249	inactive
ITPKB (inositol-trisphosphate 3-kinase B)	SID56479111	1.19	inactive
EPHA4 (EPH receptor A4)	SID152148822	-0.876	inactive
SOS2 (SOS Ras/Rho guanine nucleotide exchange factor 2)	SID152153288	-0.133	inactive
ITK (IL2 inducible T cell kinase)	SID135620623	-0.695	inactive
PIK3C3 (phosphatidylinositol 3-kinase catalytic subunit type 3)	SID134310831	-0.0819	inactive
MKNK1 (MAPK interacting serine/threonine kinase 1)	SID135620901	1.1	inactive
SMAD2 (SMAD family member 2)	SID152156776	-0.1	inactive
CSNK2A2 (casein kinase 2 alpha 2)	SID56478861	-1.19	inactive
PASK (PAS domain containing serine/threonine kinase)	SID56478950	1.19	inactive
PAK3 (p21 (RAC1) activated kinase 3)	SID56478716	0.585	inactive
CASK (calcium/calmodulin dependent serine protein kinase)	SID56479000	-0.123	inactive
NIM1K (NIM1 serine/threonine protein kinase)	SID56478948	0.0819	inactive
BMPR2 (bone morphogenetic protein receptor type 2)	SID135620969	-0.241	inactive
STK32A (serine/threonine kinase 32A)	SID152151517	0.817	inactive
BRWD1 (bromodomain and WD repeat domain containing 1)	SID135622024	0.414	inactive
CDKL2 (cyclin dependent kinase like 2)	SID152156267	0.0385	inactive
PRKAR1A	SID135621428	1.19	inactive
PDK1 (pyruvate dehydrogenase kinase 1)	SID56478951	-0.561	inactive

Copied from above (4 entries):
Gene	PubChem SID	viability z-score, siRNA alone	Outcome
PAK3 (p21 (RAC1) activated kinase 3)	SID56478716	0.585	inactive
CASK (calcium/calmodulin dependent serine protein kinase)	SID56479000	-0.123	inactive
NIM1K (NIM1 serine/threonine protein kinase)	SID56478948	0.0819	inactive
BMPR2 (bone morphogenetic protein receptor type 2)	SID135620969	-0.241	inactive
